Source: the supplement of paper PMC10849652
Some of the results follow.

Amino acid sequences for entries named in this document (tags omitted). A change or cut given only in a name is not applied to a line headed by its entry.
UniProt Q16762: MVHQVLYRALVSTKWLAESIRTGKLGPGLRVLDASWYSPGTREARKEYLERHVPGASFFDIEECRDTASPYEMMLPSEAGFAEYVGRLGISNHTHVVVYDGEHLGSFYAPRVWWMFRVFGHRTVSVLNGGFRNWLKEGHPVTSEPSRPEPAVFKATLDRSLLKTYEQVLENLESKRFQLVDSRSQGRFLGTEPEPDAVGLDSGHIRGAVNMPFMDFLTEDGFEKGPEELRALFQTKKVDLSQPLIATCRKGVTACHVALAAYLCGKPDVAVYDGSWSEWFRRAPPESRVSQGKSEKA
UniProt Q86TN4: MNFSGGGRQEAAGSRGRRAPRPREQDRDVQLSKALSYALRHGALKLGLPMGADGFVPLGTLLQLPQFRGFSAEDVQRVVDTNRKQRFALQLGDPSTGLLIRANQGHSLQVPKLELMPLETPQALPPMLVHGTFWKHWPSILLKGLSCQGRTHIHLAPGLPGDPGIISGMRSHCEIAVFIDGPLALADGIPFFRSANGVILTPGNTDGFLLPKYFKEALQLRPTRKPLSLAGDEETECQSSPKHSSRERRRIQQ
UniProt Q9UHF7: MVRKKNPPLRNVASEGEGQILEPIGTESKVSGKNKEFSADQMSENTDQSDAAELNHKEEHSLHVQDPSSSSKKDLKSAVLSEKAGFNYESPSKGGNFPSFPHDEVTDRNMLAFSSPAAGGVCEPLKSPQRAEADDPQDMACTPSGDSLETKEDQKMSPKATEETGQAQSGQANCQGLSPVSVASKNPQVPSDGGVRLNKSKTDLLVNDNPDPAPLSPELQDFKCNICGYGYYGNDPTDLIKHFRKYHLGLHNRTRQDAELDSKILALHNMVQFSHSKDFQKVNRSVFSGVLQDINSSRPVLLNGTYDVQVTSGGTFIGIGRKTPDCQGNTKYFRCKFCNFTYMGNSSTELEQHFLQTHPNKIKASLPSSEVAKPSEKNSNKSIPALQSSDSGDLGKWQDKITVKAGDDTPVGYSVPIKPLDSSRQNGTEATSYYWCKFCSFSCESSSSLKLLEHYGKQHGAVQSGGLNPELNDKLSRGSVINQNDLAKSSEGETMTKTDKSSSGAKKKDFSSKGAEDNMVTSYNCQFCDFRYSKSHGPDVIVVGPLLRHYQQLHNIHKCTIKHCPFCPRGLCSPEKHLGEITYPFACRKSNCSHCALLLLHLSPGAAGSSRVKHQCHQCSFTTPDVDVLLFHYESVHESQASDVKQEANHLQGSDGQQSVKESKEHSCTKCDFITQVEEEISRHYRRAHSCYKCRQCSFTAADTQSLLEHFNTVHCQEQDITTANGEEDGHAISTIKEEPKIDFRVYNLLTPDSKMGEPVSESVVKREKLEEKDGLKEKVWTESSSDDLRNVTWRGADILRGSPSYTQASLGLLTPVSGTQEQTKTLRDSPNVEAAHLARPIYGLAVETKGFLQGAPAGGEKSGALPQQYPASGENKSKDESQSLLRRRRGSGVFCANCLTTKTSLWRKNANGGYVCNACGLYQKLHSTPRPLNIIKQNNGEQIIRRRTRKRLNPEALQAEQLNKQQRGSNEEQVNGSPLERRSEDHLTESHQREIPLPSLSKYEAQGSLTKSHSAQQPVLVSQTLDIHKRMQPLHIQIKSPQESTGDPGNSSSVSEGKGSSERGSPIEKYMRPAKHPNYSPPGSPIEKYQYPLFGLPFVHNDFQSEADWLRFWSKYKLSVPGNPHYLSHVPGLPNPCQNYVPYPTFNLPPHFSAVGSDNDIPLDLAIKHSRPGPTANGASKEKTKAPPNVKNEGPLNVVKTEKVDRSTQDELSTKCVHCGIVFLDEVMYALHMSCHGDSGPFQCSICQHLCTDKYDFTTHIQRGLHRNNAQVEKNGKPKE
UniProt Q7Z4L5: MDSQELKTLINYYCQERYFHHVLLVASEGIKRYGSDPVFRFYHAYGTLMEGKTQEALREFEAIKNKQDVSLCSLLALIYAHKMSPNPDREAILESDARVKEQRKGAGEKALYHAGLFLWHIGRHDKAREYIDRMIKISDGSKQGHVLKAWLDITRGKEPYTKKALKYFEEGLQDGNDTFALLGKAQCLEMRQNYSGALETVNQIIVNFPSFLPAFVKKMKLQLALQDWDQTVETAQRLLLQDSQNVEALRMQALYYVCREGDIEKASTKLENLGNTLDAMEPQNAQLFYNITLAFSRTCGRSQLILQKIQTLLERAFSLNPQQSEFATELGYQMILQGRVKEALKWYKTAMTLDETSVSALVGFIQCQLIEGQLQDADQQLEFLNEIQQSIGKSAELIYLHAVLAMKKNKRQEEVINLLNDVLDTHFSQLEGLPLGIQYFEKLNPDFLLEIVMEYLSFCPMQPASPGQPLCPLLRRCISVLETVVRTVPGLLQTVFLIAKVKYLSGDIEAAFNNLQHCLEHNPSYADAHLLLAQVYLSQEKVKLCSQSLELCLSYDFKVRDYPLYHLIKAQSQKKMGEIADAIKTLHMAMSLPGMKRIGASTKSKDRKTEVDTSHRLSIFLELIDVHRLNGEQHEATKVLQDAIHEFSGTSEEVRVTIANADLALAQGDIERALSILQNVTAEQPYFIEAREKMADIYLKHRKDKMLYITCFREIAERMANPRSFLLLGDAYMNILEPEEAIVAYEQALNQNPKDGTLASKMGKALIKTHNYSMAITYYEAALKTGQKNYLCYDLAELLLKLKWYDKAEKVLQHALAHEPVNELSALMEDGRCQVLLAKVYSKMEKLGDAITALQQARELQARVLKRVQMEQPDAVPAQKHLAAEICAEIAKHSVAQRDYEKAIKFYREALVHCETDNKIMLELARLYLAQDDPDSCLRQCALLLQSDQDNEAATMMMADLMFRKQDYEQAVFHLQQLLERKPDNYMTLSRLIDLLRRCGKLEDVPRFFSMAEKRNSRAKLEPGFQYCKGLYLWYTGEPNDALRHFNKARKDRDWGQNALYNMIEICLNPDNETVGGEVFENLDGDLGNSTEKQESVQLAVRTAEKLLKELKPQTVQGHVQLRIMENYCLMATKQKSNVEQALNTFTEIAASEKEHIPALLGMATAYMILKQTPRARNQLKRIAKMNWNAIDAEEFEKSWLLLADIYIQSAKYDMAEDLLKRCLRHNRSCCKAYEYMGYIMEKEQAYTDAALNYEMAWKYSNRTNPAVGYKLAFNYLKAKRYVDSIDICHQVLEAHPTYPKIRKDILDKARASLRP
UniProt Q9NXH9: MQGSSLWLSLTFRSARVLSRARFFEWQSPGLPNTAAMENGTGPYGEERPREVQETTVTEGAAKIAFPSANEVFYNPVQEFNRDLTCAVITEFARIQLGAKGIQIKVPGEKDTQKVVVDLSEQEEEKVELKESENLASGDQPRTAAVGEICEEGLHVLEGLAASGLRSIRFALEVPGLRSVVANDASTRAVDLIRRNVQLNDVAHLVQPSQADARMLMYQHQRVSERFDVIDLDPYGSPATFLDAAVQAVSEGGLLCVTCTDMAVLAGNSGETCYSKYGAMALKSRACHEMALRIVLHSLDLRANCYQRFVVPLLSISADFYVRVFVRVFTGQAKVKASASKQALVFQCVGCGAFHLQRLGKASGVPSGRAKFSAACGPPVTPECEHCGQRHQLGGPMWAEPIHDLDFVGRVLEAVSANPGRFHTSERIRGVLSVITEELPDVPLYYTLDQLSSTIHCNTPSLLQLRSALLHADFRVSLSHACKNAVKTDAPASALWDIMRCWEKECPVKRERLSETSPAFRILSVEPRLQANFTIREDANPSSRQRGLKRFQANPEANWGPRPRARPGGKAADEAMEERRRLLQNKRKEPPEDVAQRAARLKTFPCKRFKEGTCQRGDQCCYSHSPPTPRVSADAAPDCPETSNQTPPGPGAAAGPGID
UniProt Q6Q0C0: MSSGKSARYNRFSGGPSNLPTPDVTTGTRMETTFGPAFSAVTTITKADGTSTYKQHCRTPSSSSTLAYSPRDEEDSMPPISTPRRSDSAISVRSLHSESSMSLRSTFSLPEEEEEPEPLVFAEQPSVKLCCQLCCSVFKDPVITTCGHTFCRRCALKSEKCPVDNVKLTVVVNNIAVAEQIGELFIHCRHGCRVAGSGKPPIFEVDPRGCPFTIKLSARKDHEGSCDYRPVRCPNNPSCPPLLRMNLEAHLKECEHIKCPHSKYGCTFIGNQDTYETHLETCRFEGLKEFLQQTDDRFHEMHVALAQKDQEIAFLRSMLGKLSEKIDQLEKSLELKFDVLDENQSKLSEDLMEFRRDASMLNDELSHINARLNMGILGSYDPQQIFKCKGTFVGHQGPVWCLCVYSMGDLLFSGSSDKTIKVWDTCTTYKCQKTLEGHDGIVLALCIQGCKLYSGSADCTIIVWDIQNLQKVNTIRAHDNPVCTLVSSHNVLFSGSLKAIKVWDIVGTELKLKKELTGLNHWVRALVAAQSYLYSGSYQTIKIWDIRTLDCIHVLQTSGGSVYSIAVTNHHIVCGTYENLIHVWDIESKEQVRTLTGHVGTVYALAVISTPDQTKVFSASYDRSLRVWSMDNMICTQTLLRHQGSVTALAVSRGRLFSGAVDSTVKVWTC
UniProt Q96GJ1: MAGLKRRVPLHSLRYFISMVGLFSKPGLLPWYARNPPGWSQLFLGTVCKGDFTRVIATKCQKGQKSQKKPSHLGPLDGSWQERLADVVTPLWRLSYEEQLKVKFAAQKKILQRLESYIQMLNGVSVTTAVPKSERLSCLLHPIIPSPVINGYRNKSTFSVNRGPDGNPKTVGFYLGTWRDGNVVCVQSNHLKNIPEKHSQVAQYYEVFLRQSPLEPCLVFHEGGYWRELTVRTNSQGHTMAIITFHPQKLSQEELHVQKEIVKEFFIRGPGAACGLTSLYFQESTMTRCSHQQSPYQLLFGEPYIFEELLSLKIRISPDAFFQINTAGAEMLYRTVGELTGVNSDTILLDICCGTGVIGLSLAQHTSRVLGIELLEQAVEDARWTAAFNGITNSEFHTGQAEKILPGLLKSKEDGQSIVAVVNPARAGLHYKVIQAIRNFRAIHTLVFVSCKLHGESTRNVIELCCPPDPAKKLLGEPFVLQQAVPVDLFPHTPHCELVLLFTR
UniProt P14373: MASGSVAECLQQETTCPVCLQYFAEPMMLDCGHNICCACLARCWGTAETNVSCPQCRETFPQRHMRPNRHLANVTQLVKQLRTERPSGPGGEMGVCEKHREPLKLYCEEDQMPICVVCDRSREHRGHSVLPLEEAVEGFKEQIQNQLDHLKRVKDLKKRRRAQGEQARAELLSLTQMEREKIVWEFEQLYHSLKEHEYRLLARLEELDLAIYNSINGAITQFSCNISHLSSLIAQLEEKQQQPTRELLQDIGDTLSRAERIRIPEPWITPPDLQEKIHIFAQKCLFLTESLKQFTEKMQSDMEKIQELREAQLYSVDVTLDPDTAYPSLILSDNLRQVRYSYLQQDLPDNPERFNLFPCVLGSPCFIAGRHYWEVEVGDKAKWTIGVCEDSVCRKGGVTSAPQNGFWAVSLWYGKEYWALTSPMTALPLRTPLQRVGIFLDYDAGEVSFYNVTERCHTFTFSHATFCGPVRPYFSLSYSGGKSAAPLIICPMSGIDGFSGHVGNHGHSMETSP
UniProt O43734: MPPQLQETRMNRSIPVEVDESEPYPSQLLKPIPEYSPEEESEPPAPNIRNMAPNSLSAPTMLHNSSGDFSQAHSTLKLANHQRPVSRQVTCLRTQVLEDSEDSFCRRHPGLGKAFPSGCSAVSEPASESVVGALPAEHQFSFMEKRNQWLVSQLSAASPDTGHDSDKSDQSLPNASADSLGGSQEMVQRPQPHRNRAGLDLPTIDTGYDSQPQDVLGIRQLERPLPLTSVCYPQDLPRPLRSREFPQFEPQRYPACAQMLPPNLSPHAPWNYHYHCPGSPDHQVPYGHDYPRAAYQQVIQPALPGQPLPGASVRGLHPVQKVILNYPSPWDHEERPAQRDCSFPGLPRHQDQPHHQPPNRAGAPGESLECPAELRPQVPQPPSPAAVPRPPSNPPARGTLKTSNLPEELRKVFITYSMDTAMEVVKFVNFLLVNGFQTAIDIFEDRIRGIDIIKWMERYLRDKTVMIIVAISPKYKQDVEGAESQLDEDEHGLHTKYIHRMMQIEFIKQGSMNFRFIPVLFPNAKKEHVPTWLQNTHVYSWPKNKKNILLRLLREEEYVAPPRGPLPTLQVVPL
UniProt Q7Z4G4: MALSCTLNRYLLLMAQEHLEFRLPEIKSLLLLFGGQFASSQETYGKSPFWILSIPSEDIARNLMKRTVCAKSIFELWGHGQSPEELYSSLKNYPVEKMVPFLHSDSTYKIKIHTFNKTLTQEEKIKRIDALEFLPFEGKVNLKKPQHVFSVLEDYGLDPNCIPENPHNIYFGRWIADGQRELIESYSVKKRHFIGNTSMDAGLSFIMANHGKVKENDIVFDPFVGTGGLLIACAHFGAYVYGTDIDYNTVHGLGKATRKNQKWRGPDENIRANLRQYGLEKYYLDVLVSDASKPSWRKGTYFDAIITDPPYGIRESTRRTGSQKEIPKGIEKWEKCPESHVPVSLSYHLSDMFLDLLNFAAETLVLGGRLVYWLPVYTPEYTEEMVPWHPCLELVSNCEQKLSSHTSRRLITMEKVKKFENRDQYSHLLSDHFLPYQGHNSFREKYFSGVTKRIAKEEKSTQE

Experiments:
Assay in all cases: log2 fold change, soluble protein after heating vs DMSO (PISA); higher = thermal stabilisation; K562 lysate, 10 uM; active = over 0.2 and 3.5 SD of the protein, either way, in both replicates (recomputed)
alvocidib = compound: CN1CC[C@H](c2c(O)cc(O)c3c(=O)cc(-c4ccccc4Cl)oc23)[C@H](O)C1 [alvocidib]
Procedure, shortened: (§1)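 Dounce homogenisation of K562 pellets in PBS pH 7.4 with 1 mM MgCl2 produced a crude extract, used at 1 mg/mL protein. Exposure to 10 μM compound lasted 30 min, and aliquots were then heated for 3 min across 48°C-58°C, pooled and brought to 0.5% NP-40 at 4°C. The supernatant after 21,000xg for 90 min was quantified by TMTpro 16plex LC-MS/MS with channel sums equalised. Duplicate values are given as log-two fold change in thermal stability relative to solvent controls.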

Tubastatin A = compound: CN1CCc2c(c3ccccc3n2Cc2ccc(C(=O)NO)cc2)C1 [Tubastatin A]
Procedure, shortened: as §1

[1] = compound: CNC(=O)C1=CC=CC=C1NC2=NC(=NC=C2Cl)NC3=C(C=C(C=C3)N4CCOCC4)OC
Procedure, shortened: as §1

defactinib = compound: CNC(=O)c1ccc(Nc2ncc(C(F)(F)F)c(NCc3nccnc3N(C)S(C)(=O)=O)n2)cc1 [defactinib]
Procedure, shortened: as §1

[2] = compound: CNc1nc(-c2ccc3c(N)n[nH]c3c2)cc(N2C[C@@H](C(=O)NC3CCCCC3)CC[C@H]2C)n1
Procedure, shortened: as §1

encorafenib = compound: COC(=O)N[C@@H](C)CNc1nccc(-c2cn(C(C)C)nc2-c2cc(Cl)cc(NS(C)(=O)=O)c2F)n1 [encorafenib]
Procedure, shortened: as §1

[3] = compound: COC(=O)[C@H](CCSC)NC(=O)C1=C(C=C(C=C1)NC[C@H](CS)N)C2=CC=CC=C2
Procedure, shortened: as §1

alisertib = compound: COc1cc(Nc2ncc3c(n2)-c2ccc(Cl)cc2C(c2c(F)cccc2OC)=NC3)ccc1C(=O)O [alisertib]
Procedure, shortened: as §1

[4] = compound: COc1cc2nc(-c3cc(F)ccc3O)nc(N[C@@H]3CNC[C@H]3C(C)(C)O)c2cc1OC
Procedure, shortened: as §1

gefitinib = compound: COc1cc2ncnc(Nc3ccc(F)c(Cl)c3)c2cc1OCCCN1CCOCC1 [gefitinib]
Procedure, shortened: as §1

lapatinib = compound: CS(=O)(=O)CCNCc1ccc(-c2ccc3ncnc(Nc4ccc(OCc5cccc(F)c5)c(Cl)c4)c3c2)o1 [lapatinib]
Procedure, shortened: as §1

pictilisib = compound: CS(=O)(=O)N1CCN(Cc2cc3nc(-c4cccc5[nH]ncc45)nc(N4CCOCC4)c3s2)CC1 [pictilisib]
Procedure, shortened: as §1

crizotinib = compound: C[C@@H](Oc1cc(-c2cnn(C3CCNCC3)c2)cnc1N)c1c(Cl)ccc(F)c1Cl [crizotinib]
Procedure, shortened: as §1

[5] = compound: C[C@H](C1=CC=C(C=C1)C(=O)NC2=C3C=CNC3=NC=C2)N
Procedure, shortened: as §1

duvelisib = compound: C[C@H](Nc1ncnc2nc[nH]c12)c1cc2cccc(Cl)c2c(=O)n1-c1ccccc1 [duvelisib]
Procedure, shortened: as §1

gandotinib = compound: Cc1cc(Nc2cc(CN3CCOCC3)c3nc(C)c(Cc4ccc(Cl)cc4F)n3n2)n[nH]1 [gandotinib]
Procedure, shortened: as §1

tozasertib = compound: Cc1cc(Nc2cc(N3CCN(C)CC3)nc(Sc3ccc(NC(=O)C4CC4)cc3)n2)n[nH]1 [tozasertib]
Procedure, shortened: as §1

doramapimod = compound: Cc1ccc(-n2nc(C(C)(C)C)cc2NC(=O)Nc2ccc(OCCN3CCOCC3)c3ccccc23)cc1 [doramapimod]
Procedure, shortened: as §1

bafetinib = compound: Cc1ccc(NC(=O)c2ccc(CN3CC[C@H](N(C)C)C3)c(C(F)(F)F)c2)cc1Nc1nccc(-c2cncnc2)n1 [bafetinib]
Procedure, shortened: as §1

[6] = compound: Cc1cccc(CC(=O)N2CCc3c2ccc(-c2cn(C)c4ncnc(N)c24)c3F)n1
Procedure, shortened: as §1

Measured: log2 fold change

TST (UniProt Q16762)
inactive: alvocidib -0.001 | Tubastatin A 0.047 | [1] 0.018 | defactinib -0.013 | [2] -0.046 | encorafenib -0.025 | [3] -0.049 | alisertib 0.014 | [4] -0.027 | gefitinib -0.034 | lapatinib 0.06 | pictilisib -0.003 | crizotinib -0.105 | [5] 0.024 | duvelisib 0.002 | gandotinib 0.055 | tozasertib 0.07 | doramapimod 0.018 | bafetinib 0.05 | [6] -0.057

TRIP12 isoform 2 (UniProt Q14669)
inactive: alvocidib 0.018 | Tubastatin A -0.035 | [1] 0.002 | defactinib 0.045 | [2] -0.17 | encorafenib 0.049 | [3] -0.018 | alisertib 0.019 | [4] -0.122 | gefitinib 0.005 | lapatinib -0.109 | pictilisib 0.016 | crizotinib -0.029 | [5] -0.012 | duvelisib 0.05 | gandotinib -0.042 | tozasertib 0.024 | doramapimod -0.006 | bafetinib -0.06 | [6] 0.06

TRPM7 (UniProt Q96QT4)
inactive: alvocidib 0.055 | Tubastatin A -0.001 | defactinib -0.01 | [2] -0.097 | encorafenib -0.034 | [3] 0.01 | alisertib 0.008 | [4] 0.102 | gefitinib 0.085 | lapatinib -0.211 | crizotinib 0.14 | [5] -0.068 | duvelisib 0.046 | gandotinib -0.009 | tozasertib 0.008 | doramapimod -0.005 | [6] 0.201

TRPT1 isoform 4 (UniProt Q86TN4)
inactive: alvocidib -0.06 | Tubastatin A 0.112 | [1] -0.091 | defactinib 0.131 | [2] 0 | alisertib -0.042 | [4] 0.121 | gefitinib -0.035 | lapatinib -0.008 | pictilisib 0.371 | crizotinib -0.032 | [5] -0.028 | duvelisib 0.051 | gandotinib 0.034 | doramapimod 0.047 | bafetinib 0.139 | [6] -0.007

TTC26
inactive: alvocidib 0.005 | Tubastatin A 0.091 | [2] 0.243 | encorafenib 0.187 | [3] -0.023 | alisertib -0.13 | gefitinib 0.122 | [5] -0.024 | duvelisib 0.055 | gandotinib -0.162 | tozasertib -0.006 | [6] 0.102

TRIM47 (UniProt Q96LD4)
inactive: alvocidib 0.022 | [1] -0.031 | defactinib 0.138 | [2] -0.09 | encorafenib -0.105 | [3] 0.055 | alisertib 0.069 | [4] 0.122 | gefitinib -0.014 | lapatinib 0.114 | [5] -0.176 | duvelisib -0.048 | gandotinib -0.069 | tozasertib 0.008 | [6] 0

TRPS1 isoform 2 (UniProt Q9UHF7)
inactive: alvocidib -0.224 | [1] 0.006 | [2] 0.036 | [4] -0.121 | lapatinib 0.072 | crizotinib -0.306 | [5] -0.169 | duvelisib 0 | gandotinib -0.034 | doramapimod 0.055 | [6] 0.279

TTC21B (UniProt Q7Z4L5)
inactive: alvocidib 0.013 | [1] 0.265 | defactinib 0.202 | [2] 0.206 | encorafenib 0.124 | [3] -0.058 | alisertib -0.027 | gefitinib 0.083 | pictilisib -0.022 | [5] -0.084 | duvelisib 0.023 | gandotinib -0.034 | tozasertib -0.109 | bafetinib -0.034 | [6] 0.038

TRMT1 (UniProt Q9NXH9)
inactive: alvocidib -0.006 | Tubastatin A 0.001 | [1] 0.012 | defactinib 0.012 | [2] -0.033 | encorafenib 0.019 | [3] -0.05 | alisertib 0.022 | [4] -0.007 | gefitinib 0.019 | lapatinib -0.016 | pictilisib 0.008 | crizotinib -0.013 | [5] -0.043 | duvelisib 0.039 | gandotinib 0.036 | tozasertib 0.022 | doramapimod 0.02 | bafetinib -0.038 | [6] 0.011

TRAF7 (UniProt Q6Q0C0)
inactive: alvocidib 0.058 | Tubastatin A -0.008 | defactinib 0.141 | [2] 0.025 | encorafenib 0.015 | [3] -0.11 | alisertib -0.05 | gefitinib -0.099 | crizotinib -0.01 | [5] -0.241 | duvelisib -0.029 | gandotinib -0.128 | tozasertib 0.124 | doramapimod 0.122 | [6] 0.127

TSPYL1 (UniProt Q9H0U9)
inactive: alvocidib 0.17 | Tubastatin A 0.18 | [1] 0.034 | [2] -0.004 | alisertib 0 | [4] -0.045 | gefitinib 0.03 | lapatinib -0.078 | pictilisib -0.032 | crizotinib -0.054 | [5] -0.179 | duvelisib 0.059 | gandotinib 0.044 | doramapimod 0.054 | bafetinib 0.133 | [6] 0.027

TRMT2B (UniProt Q96GJ1)
inactive: alvocidib -0.057 | Tubastatin A -0.026 | [1] 0.041 | [2] -0.005 | alisertib -0.012 | [4] 0.174 | gefitinib 0.041 | lapatinib -0.122 | pictilisib -0.055 | crizotinib -0.013 | [5] 0 | duvelisib 0.001 | gandotinib -0.025 | doramapimod 0.052 | bafetinib -0.12 | [6] 0.014

TRMT2A (UniProt Q8IZ69)
inactive: alvocidib -0.014 | Tubastatin A -0.144 | [1] 0.019 | defactinib 0.041 | [2] -0.018 | encorafenib 0.019 | [3] 0.098 | alisertib 0.043 | [4] 0.007 | gefitinib 0.007 | lapatinib -0.01 | pictilisib -0.057 | crizotinib -0.017 | [5] -0.002 | duvelisib -0.036 | gandotinib -0.03 | tozasertib 0.001 | doramapimod -0.002 | bafetinib -0.016 | [6] 0.009

TRMT112 (UniProt Q9UI30)
inactive: alvocidib 0.017 | Tubastatin A 0.037 | [1] -0.051 | defactinib 0.035 | [2] 0.019 | encorafenib 0.04 | [3] -0.004 | alisertib 0.005 | [4] -0.036 | gefitinib -0.117 | lapatinib 0.025 | pictilisib 0.036 | crizotinib -0.012 | [5] 0.033 | duvelisib 0.027 | gandotinib -0.041 | tozasertib 0.036 | doramapimod -0.009 | bafetinib 0.007 | [6] -0.001

TRIM27 (UniProt P14373)
inactive: alvocidib 0.046 | Tubastatin A -0.066 | [1] -0.006 | defactinib 0.001 | alisertib -0.027 | gefitinib 0.119 | pictilisib 0.103 | crizotinib -0.039 | [5] 0.02 | gandotinib 0.014 | doramapimod 0.01 | bafetinib 0.001 | [6] 0.03

TTLL12 (UniProt V9GY16)
inactive: alvocidib 0.003 | Tubastatin A 0.177 | [1] 0.077 | defactinib -0.095 | encorafenib -0.174 | [3] 0.146 | pictilisib 0.058 | crizotinib 0.072 | [5] -0.169 | gandotinib 0.188 | tozasertib -0.087 | doramapimod -0.029 | bafetinib -0.187 | [6] 0.263

TRAF3IP2 (UniProt O43734)
inactive: alvocidib 0.001 | Tubastatin A 0.039 | [1] -0.153 | defactinib -0.085 | [5] -0.107 | gandotinib -0.292 | [6] -0.359

TRIM58 (UniProt Q8NG06)
inactive: alvocidib 0.051 | Tubastatin A -0.003 | [1] 0.14 | defactinib -0.025 | [2] 0.021 | encorafenib 0.032 | [3] 0.101 | alisertib -0.039 | gefitinib 0.027 | pictilisib -0.05 | crizotinib 0.036 | [5] -0.05 | duvelisib -0.034 | gandotinib -0.042 | tozasertib -0.043 | doramapimod 0.011 | bafetinib -0.021 | [6] 0.02

TSKS (UniProt Q9UJT2)
inactive: alvocidib 0 | Tubastatin A -0.136 | [1] -0.056 | defactinib 0.135 | [2] 0.016 | encorafenib 0.128 | [3] -0.245 | crizotinib -0.009 | [5] 0.237 | duvelisib -0.011 | gandotinib -0.223 | tozasertib 0.035 | doramapimod 0.019 | [6] 0.004

TRMT11 (UniProt Q7Z4G4)
inactive: alvocidib -0.008 | Tubastatin A 0.008 | [1] 0.081 | defactinib 0.066 | [2] -0.013 | encorafenib -0.022 | [3] -0.06 | alisertib -0.018 | [4] -0.02 | gefitinib 0.013 | lapatinib -0.007 | pictilisib -0.028 | crizotinib 0.018 | [5] 0.006 | duvelisib -0.008 | gandotinib 0 | tozasertib 0.011 | doramapimod -0.006 | bafetinib 0.032 | [6] -0.021
